Earlier results, collected in patent US10736889B2, “Method of treating dyskinesia” (Rutgers, The State University of New Jersey, priority 2011, dated 2020).

Test system: Parkinsonian primates and patients

For `CN1CC[C@]23c4c5ccc(O)c4O[C@H]2[C@@H](O)C=C[C@H]3[C@H]1C5` [Morphine], the dyskinetic movements is given as “reduces dyskinetic movements”.
